In the supplement of paper PMC11732987, “Enantioselective OTUD7B fragment discovery through chemoproteomics screening and high-throughput optimisation” (Communications Chemistry, 2025):
The list shows a part of the results. The data scatter; read single values as rough.

Compound: ClCC(=O)N[C@@H]1CCCc2ccccc12
Assay: log2 mean competition ratio of IA-DTB cysteine labelling (DMSO/compound) (log2 ratio); higher = stronger cysteine engagement by compound
Conditions: 50 µM; treatment time: 4 h; cell line lysate: HEK293T
Description: (§1)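 IA-DTB competitive cysteine chemoproteomics in HEK293T RIPA lysate. Lysates were treated with compound 29 or 30 at 50 or 200 µM for 4 h, then IA-DTB (500 µM, 1 h), trypsin-digested, NeutrAvidin-enriched and analysed by diaPASEF. Competition ratio = intensity DMSO / intensity compound (n=4 treated, n=64 DMSO); binding: mean log2 CR ≥ 1 and p ≤ 0.05 plus QC filters. Target is the cysteine site.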

Target | log2 mean competition ratio
NOP56 C472 (UniProt O00567) | -0.141
NBAS C406 (UniProt A2RRP1) | 0.171
NHSL1 C268 (UniProt Q5SYE7) | -0.0707
NOL8 C517 (UniProt Q76FK4) | 0.0284
NFAT5 C566 (UniProt O94916) | 0.0249
NCAPD3 C631 (UniProt P42695) | 0.0261
NCOA2 C22 (UniProt Q15596) | -0.204
NDUFS1 C75 (UniProt P28331) | -0.0611
NOP56 C142 (UniProt O00567) | -0.0845
NBN C323 (UniProt O60934) | -0.039
NCKIPSD C376 (UniProt Q9NZQ3) | -0.106
NKD2 C229 | 0.0495
NFATC2IP C232 (UniProt Q8NCF5) | -0.228
NCOR1 C1274 (UniProt O75376) | -0.154
NET1 C293 (UniProt Q7Z628) | -0.181
NDC1 C9 (UniProt Q9BTX1) | 0.465
NF1 C2808 (UniProt P21359) | 0.0521
NLE1 C280 (UniProt Q9NVX2) | -0.108
NOL8 C578 (UniProt Q76FK4) | 0.139

Target | log2 mean competition ratio
NCAPG2 C401 (UniProt Q86XI2) | 0.288
NOM1 C332 (UniProt Q5C9Z4) | -0.0791
NCAPH2 C309 (UniProt Q6IBW4) | -0.191
NEMF C663 (UniProt O60524) | -0.366
NCBP1 C409 (UniProt Q09161) | -0.0472
NF1 C509 (UniProt P21359) | -0.158
NOS1AP C168 (UniProt O75052) | 0.158
NEK6 C264 (UniProt Q9HC98) | -0.121
NOL8 C1020 (UniProt Q76FK4) | -0.15
NDUFA4 C44 (UniProt O00483) | -0.0894
NLN C153 (UniProt Q9BYT8) | -0.0403
NEK1 C1051 (UniProt Q96PY6) | 0.0614
NAV1 C337 (UniProt Q8NEY1) | 0.0558
NCBP1 C320 (UniProt Q09161) | -0.344
NCAPG C202 (UniProt Q9BPX3) | -0.0255
NCAPG2 C1047 (UniProt Q86XI2) | -0.0634
NCAPG C667 (UniProt Q9BPX3) | -0.343
NDRG3 C375 (UniProt Q9UGV2) | -0.0995
NOCT C302 (UniProt Q9UK39) | -0.254

Same assay, conditions: 200 µM; treatment time: 4 h; cell line lysate: HEK293T

Target | log2 mean competition ratio
NOP56 C472 (UniProt O00567) | -0.326
NBAS C406 (UniProt A2RRP1) | -0.217
NHSL1 C268 (UniProt Q5SYE7) | 0.56
NOL8 C517 (UniProt Q76FK4) | 0.18
NFAT5 C566 (UniProt O94916) | 0.163
NCAPD3 C631 (UniProt P42695) | -0.0957
NCOA2 C22 (UniProt Q15596) | -0.196
NDUFS1 C75 (UniProt P28331) | 0.00848
NOP56 C142 (UniProt O00567) | -0.171
NBN C323 (UniProt O60934) | -0.366
NCKIPSD C376 (UniProt Q9NZQ3) | 0.074
NKD2 C229 | 0.555
NFATC2IP C232 (UniProt Q8NCF5) | -0.345
NCOR1 C1274 (UniProt O75376) | 0.14
NET1 C293 (UniProt Q7Z628) | 0.173
NDC1 C9 (UniProt Q9BTX1) | 0.113
NF1 C2808 (UniProt P21359) | -0.286
NLE1 C280 (UniProt Q9NVX2) | -0.186
NOL8 C578 (UniProt Q76FK4) | 0.0066

Target | log2 mean competition ratio
NCAPG2 C401 (UniProt Q86XI2) | 0.13
NOM1 C332 (UniProt Q5C9Z4) | -0.0595
NCAPH2 C309 (UniProt Q6IBW4) | 0.153
NEMF C663 (UniProt O60524) | -0.146
NCBP1 C409 (UniProt Q09161) | 0.142
NF1 C509 (UniProt P21359) | -0.222
NOS1AP C168 (UniProt O75052) | -0.262
NEK6 C264 (UniProt Q9HC98) | 0.287
NOL8 C1020 (UniProt Q76FK4) | -0.179
NDUFA4 C44 (UniProt O00483) | -0.27
NLN C153 (UniProt Q9BYT8) | 0.14
NEK1 C1051 (UniProt Q96PY6) | 0.178
NAV1 C337 (UniProt Q8NEY1) | 0.246
NCBP1 C320 (UniProt Q09161) | 0.108
NCAPG C202 (UniProt Q9BPX3) | 0.152
NCAPG2 C1047 (UniProt Q86XI2) | 0.04
NCAPG C667 (UniProt Q9BPX3) | -0.193
NDRG3 C375 (UniProt Q9UGV2) | 0.0374
NOCT C302 (UniProt Q9UK39) | 0.107

Compound: ClCC(=O)N[C@H]1CCCc2ccccc12
Assay: as above
Conditions: 50 µM; treatment time: 4 h; cell line lysate: HEK293T
Description: as §1

Target | log2 mean competition ratio
NOP56 C472 (UniProt O00567) | 0.574
NBAS C406 (UniProt A2RRP1) | -0.0292
NHSL1 C268 (UniProt Q5SYE7) | -0.17
NOL8 C517 (UniProt Q76FK4) | -0.0741
NFAT5 C566 (UniProt O94916) | 0.086
NCAPD3 C631 (UniProt P42695) | 0.51
NCOA2 C22 (UniProt Q15596) | -0.509
NDUFS1 C75 (UniProt P28331) | 0.0225
NOP56 C142 (UniProt O00567) | 0.383
NBN C323 (UniProt O60934) | -0.201
NCKIPSD C376 (UniProt Q9NZQ3) | -0.0716
NKD2 C229 | -0.293
NFATC2IP C232 (UniProt Q8NCF5) | -0.552
NCOR1 C1274 (UniProt O75376) | -0.0516
NET1 C293 (UniProt Q7Z628) | -0.113
NDC1 C9 (UniProt Q9BTX1) | 0.292
NF1 C2808 (UniProt P21359) | 0.0812
NLE1 C280 (UniProt Q9NVX2) | -0.0818
NOL8 C578 (UniProt Q76FK4) | 0.583

Target | log2 mean competition ratio
NCAPG2 C401 (UniProt Q86XI2) | 0.454
NOM1 C332 (UniProt Q5C9Z4) | -0.0751
NCAPH2 C309 (UniProt Q6IBW4) | -0.037
NEMF C663 (UniProt O60524) | -0.213
NCBP1 C409 (UniProt Q09161) | -0.206
NF1 C509 (UniProt P21359) | 0.25
NOS1AP C168 (UniProt O75052) | -0.514
NEK6 C264 (UniProt Q9HC98) | -0.421
NOL8 C1020 (UniProt Q76FK4) | -0.461
NDUFA4 C44 (UniProt O00483) | 0.0226
NLN C153 (UniProt Q9BYT8) | -0.428
NEK1 C1051 (UniProt Q96PY6) | 0.0659
NAV1 C337 (UniProt Q8NEY1) | -0.000841
NCBP1 C320 (UniProt Q09161) | -0.317
NCAPG C202 (UniProt Q9BPX3) | 0.0821
NCAPG2 C1047 (UniProt Q86XI2) | -0.122
NCAPG C667 (UniProt Q9BPX3) | 0.0335
NDRG3 C375 (UniProt Q9UGV2) | 0.0425
NOCT C302 (UniProt Q9UK39) | -0.248
